Experimental data as given in EP4847492A1, “USE OF SALT FORMS OF COMPOUND AND CRYSTAL FORMS THEREOF IN TREATMENT OF HEART FAILURE WITH PRESERVED EJECTION FRACTION” (dated 2026).
Where a name gives a salt, the structure may show the parent alone. The match of structure and compound is tentative.

Columns and labels:
[1] = Preliminary physical stability, open storage at 25°C/60% RH and 25°C/80% RH
[2] = Solid stability, 25°C/92.5%RH open and 60°C closed, 1 week (XRPD, HPLC, color); design: CL (color): key to the marks not given beside the values; details: for Solid (XRPD): crystal form after storage
[3] = Solubility at 37°C in water, buffer and simulated biological fluids (2 h, 24 h)
[4] = 25°C/92.5%RH, open storage conditions

## O=C(O)CCc1cc(C(=O)c2ccc(OC3CCCC3)cc2O)ccc1OCc1ccc2c(O)noc2c1 [Betaine salt Form A]
[1]; 25°C/60%RH, open storage for 3 days
  moisture absorption and color change of the solid: No significant moisture absorption of the solid; no significant color change.
[1]; 25°C/80%RH, open storage for 2 days
  moisture absorption and color change of the solid: No significant moisture absorption of the solid; no significant color change.
[2]; [4]
  CL (color): A
  Solid (HPLC) Purity: 98.7%
  Solid (XRPD): Betaine salt Form A
[2]; 60°C, closed container
  CL (color): A
  Solid (HPLC) Purity: 98.7%
  Solid (XRPD): Betaine salt Form A
[3]; FaSSGF, pH 1.6, 37°C
  pH of the supernatant 24h: 1.5
[3]; FaSSIF-v1, pH 6.5, 37°C
  pH of the supernatant 24h: 6.3
[3]; FeSSIF-v1, pH 5.0, 37°C
  pH of the supernatant 24h: 4.9
[3]; Water, 37°C
  pH of the supernatant 24h: 7.4
